Values from PubChem BioAssay AID504791 (Drosophila RNAi Screening Center, 2011)
In all, the deposit lists about 23,000 reagents; shown is a random part of those that have a named target and a result. Of all reagents, 199 (0.86%) are marked active. 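Plate-scaled ratios behind the calls are not deposited; printed light signals are raw; many rows marked increased or decreased are still called inactive.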 Reagents against one gene are numbered here. Reagent sequences are not shown. The record does not give: the direction of the score.

Aim: 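Genes whose knock-down strengthens or weakens small-RNA reporter silencing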 (primary screen)
Cells: Drosophila S2-derived reporter cells
Knock-down reagent: long dsRNA against Drosophila genes, about 150-250 ng dsRNA per well (siRNA assay); about 80-120 ng (miRNA assay)
Time to read-out: about 5 days (siRNA assay); about 4 days (miRNA assay)
Challenge: copper sulfate induction of reporters: 25 µM (siRNA assay); 200 mM stated (miRNA assay), 1-2 days before reading
Detection: 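Dual luciferase assay: Renilla to firefly signal ratio in each well, scaled to the mean ratio of its plate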
Units: stable assay Renilla, run 1 in luminescence; stable assay firefly, run 1 in luminescence
Active means: 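First-pass picks had plate-scaled ratios over 1.5 for the siRNA assay, over 1.6 for the miRNA assay, or under 0.6; two distinct dsRNAs had to score alike on retest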

Against yin #1, the entry reads stable assay Renilla, run 1 = 7082; stable assay firefly, run 1 = 4.41e5; inactive.
For yin #2, the entry reads stable assay Renilla, run 1 = 8886; stable assay firefly, run 1 = 5.82e5; inactive.
With knock-down of CG3097 the results were stable assay Renilla, run 1 = 7035; stable assay firefly, run 1 = 5.02e5; inactive.
Knock-down of CG18265 came out at: stable assay Renilla, run 1 = 7483; stable assay firefly, run 1 = 3.04e5; inactive.
Silencing of Gpb5 resulted in: stable assay Renilla, run 1 = 4532; stable assay firefly, run 1 = 3.36e5; inactive.
Silencing of Acbp1 gave: stable assay Renilla, run 1 = 7746; stable assay firefly, run 1 = 4.71e5; inactive.
After knock-down of CG13102 the results were stable assay Renilla, run 1 = 7138; stable assay firefly, run 1 = 5.02e5; inactive.
After knock-down of CG4619 the results were stable assay Renilla, run 1 = 6238; stable assay firefly, run 1 = 3.62e5; inactive.
Against Ir41a #1, the values are stable assay Renilla, run 1 = 5582; stable assay firefly, run 1 = 4.06e5; inactive.
For Ir41a #2 the deposit lists stable assay Renilla, run 1 = 6875; stable assay firefly, run 1 = 3.66e5; inactive.
CG42514 scored stable siRNA reporter change reporter ratio lowered past the hit cutoff; stable assay Renilla, run 1 = 8124; stable assay firefly, run 1 = 5.64e5; inactive.
With knock-down of CG4210 the results were stable assay Renilla, run 1 = 6432; stable assay firefly, run 1 = 3.19e5; inactive.
For CG6503, the entry reads stable assay Renilla, run 1 = 5986; stable assay firefly, run 1 = 3.19e5; inactive.
Against Tsp33B, the entry reads stable assay Renilla, run 1 = 6954; stable assay firefly, run 1 = 4.38e5; inactive.
After knock-down of stas, the record shows stable assay Renilla, run 1 = 6372; stable assay firefly, run 1 = 5.05e5; inactive.
Against AnxB11, the values are stable assay Renilla, run 1 = 9042; stable assay firefly, run 1 = 7.25e5; inactive.
Knock-down of Pburs gave: stable assay Renilla, run 1 = 7462; stable assay firefly, run 1 = 3.46e5; inactive.
Knock-down of hng1 resulted in: stable assay Renilla, run 1 = 5.81e5; stable assay firefly, run 1 = 2.92e5; inactive.
CG13084 scored stable assay Renilla, run 1 = 7156; stable assay firefly, run 1 = 4.85e5; inactive.
